This note sets out measurements from the supplement of paper PMC12819154, “High-throughput peptide-centric local stability assay extends protein–ligand identification to membrane proteins, tissues and bacteria” (Nature Structural & Molecular Biology, 2025).

Amino acid sequences for entries named in this document (tags omitted). A change or cut given only in a name is not applied to a line headed by its entry.
UniProt P25446: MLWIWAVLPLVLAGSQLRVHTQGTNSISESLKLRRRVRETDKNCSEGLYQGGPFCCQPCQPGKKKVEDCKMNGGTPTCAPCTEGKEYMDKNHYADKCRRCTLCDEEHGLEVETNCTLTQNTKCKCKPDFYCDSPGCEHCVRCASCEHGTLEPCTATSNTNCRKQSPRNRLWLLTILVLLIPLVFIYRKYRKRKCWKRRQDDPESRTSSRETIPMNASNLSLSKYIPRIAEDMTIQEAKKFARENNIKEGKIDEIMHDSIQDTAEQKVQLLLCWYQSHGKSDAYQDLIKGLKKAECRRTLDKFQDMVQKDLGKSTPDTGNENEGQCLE
UniProt P19324: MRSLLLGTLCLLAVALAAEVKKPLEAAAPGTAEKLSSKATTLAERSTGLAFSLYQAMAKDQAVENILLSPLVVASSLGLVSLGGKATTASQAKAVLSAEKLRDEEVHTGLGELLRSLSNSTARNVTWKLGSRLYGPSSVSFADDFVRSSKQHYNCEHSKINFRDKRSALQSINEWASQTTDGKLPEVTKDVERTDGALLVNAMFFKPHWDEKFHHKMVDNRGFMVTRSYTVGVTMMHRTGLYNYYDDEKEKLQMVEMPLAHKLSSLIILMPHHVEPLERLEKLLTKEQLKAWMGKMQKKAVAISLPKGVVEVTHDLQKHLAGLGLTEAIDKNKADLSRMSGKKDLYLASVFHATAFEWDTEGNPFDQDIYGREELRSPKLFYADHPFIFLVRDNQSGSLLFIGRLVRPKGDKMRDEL
UniProt P28662: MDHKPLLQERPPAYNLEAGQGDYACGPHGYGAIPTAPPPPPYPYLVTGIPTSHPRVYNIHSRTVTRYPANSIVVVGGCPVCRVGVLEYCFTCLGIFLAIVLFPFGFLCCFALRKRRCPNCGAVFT
UniProt P31001, whole entry: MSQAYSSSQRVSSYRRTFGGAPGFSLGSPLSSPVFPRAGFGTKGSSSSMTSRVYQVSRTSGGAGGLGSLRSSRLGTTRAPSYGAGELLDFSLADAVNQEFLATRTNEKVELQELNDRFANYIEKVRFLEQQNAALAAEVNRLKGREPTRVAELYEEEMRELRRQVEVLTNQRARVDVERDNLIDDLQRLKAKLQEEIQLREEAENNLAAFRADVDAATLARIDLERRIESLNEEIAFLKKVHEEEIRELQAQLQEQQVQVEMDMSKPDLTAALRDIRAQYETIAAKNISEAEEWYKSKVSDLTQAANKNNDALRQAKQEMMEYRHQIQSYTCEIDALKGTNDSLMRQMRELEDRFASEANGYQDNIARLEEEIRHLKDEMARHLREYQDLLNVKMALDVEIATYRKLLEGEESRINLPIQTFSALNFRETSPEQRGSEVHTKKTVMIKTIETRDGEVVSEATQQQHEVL
UniProt P27786: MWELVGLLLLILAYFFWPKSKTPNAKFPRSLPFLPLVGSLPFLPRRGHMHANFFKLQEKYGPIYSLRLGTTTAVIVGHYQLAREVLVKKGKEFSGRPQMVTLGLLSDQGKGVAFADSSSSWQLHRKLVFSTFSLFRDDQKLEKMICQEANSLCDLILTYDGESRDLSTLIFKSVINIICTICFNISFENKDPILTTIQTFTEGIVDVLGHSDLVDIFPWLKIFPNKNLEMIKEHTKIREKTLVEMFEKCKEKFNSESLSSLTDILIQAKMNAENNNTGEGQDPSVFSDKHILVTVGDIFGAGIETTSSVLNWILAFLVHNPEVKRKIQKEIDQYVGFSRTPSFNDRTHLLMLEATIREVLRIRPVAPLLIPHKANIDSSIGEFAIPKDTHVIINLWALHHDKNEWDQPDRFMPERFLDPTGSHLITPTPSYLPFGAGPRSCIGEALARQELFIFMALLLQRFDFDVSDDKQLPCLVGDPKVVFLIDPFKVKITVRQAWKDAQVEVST
UniProt P19973, whole entry: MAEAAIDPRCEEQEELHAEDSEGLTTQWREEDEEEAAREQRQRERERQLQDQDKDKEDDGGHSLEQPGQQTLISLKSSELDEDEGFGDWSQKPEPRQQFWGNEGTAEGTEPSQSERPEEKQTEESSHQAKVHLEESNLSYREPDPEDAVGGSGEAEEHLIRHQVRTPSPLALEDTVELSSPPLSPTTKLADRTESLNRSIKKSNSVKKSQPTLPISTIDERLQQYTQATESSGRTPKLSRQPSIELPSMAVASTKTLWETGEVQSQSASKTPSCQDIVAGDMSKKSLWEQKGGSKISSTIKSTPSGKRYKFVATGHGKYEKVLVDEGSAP
UniProt P18337: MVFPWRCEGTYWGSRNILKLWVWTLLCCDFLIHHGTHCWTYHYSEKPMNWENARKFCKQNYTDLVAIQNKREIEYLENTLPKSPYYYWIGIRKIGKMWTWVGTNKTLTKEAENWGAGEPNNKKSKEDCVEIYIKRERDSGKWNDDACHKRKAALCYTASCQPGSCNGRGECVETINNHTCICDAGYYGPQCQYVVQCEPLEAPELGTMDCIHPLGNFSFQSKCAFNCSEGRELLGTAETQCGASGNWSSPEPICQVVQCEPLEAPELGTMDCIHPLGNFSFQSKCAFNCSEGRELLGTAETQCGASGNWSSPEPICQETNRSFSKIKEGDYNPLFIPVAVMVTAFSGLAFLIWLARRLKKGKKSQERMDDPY
UniProt P19536: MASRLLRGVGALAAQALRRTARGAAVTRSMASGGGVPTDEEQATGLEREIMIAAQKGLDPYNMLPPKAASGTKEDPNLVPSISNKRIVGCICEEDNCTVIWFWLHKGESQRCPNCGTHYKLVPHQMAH
UniProt P20443, whole entry: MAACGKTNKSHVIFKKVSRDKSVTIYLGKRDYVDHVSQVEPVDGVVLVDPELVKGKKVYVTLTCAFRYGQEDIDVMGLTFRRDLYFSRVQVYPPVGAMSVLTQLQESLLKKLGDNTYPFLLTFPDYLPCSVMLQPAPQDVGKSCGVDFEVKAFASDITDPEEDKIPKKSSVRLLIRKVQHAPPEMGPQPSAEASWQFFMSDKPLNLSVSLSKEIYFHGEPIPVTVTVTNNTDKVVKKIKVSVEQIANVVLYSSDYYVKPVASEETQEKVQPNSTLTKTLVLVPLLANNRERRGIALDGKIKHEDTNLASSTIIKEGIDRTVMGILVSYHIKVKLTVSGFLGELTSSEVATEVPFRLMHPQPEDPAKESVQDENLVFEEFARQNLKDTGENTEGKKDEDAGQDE
UniProt P17047: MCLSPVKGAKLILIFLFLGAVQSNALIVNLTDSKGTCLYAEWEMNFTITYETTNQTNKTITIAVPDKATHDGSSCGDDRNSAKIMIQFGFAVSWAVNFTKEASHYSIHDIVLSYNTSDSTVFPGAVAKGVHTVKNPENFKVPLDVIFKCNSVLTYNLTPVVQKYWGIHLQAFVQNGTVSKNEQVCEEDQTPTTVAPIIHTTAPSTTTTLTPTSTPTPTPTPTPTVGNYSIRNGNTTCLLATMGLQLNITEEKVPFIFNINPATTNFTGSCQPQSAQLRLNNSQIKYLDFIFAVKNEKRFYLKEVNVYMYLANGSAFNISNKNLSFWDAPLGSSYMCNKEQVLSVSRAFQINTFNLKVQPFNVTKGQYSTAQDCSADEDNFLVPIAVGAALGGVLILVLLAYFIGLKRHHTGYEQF
UniProt P26262: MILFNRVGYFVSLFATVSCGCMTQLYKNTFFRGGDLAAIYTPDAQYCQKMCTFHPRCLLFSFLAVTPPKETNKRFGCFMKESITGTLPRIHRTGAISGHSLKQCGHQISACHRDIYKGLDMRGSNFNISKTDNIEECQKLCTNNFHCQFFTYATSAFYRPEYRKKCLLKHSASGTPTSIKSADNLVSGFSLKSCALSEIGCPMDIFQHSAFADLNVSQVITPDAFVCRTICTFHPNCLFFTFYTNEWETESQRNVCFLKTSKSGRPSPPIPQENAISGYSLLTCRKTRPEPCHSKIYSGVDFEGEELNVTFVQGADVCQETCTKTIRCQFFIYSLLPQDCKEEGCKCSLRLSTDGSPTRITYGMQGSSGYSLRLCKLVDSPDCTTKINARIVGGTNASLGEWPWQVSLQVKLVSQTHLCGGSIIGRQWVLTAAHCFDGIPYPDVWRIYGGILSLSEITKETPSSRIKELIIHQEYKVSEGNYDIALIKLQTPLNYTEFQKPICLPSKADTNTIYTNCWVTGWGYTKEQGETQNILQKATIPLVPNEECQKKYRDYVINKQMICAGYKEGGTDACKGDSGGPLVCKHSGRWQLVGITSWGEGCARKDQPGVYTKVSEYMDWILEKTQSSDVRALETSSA
UniProt P18468: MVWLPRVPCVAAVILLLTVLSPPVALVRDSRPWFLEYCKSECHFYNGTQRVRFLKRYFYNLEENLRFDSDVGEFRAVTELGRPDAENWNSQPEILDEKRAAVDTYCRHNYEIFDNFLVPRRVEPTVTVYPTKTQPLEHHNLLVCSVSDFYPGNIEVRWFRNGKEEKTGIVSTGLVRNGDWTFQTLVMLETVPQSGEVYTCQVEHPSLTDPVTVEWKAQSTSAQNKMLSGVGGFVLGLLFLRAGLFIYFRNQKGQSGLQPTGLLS
UniProt P23204: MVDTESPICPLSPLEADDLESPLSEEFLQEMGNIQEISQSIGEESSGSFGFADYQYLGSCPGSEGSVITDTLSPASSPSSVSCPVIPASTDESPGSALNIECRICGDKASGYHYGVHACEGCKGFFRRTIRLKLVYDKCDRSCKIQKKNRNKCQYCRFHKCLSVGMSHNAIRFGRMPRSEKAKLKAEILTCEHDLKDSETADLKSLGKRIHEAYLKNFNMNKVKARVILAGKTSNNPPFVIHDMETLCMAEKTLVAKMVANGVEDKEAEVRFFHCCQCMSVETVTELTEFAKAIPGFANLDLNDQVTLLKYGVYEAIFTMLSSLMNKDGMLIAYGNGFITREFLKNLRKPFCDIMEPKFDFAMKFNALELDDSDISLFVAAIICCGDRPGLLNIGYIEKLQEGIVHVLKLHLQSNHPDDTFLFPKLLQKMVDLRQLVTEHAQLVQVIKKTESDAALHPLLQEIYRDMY
UniProt P19785, whole entry: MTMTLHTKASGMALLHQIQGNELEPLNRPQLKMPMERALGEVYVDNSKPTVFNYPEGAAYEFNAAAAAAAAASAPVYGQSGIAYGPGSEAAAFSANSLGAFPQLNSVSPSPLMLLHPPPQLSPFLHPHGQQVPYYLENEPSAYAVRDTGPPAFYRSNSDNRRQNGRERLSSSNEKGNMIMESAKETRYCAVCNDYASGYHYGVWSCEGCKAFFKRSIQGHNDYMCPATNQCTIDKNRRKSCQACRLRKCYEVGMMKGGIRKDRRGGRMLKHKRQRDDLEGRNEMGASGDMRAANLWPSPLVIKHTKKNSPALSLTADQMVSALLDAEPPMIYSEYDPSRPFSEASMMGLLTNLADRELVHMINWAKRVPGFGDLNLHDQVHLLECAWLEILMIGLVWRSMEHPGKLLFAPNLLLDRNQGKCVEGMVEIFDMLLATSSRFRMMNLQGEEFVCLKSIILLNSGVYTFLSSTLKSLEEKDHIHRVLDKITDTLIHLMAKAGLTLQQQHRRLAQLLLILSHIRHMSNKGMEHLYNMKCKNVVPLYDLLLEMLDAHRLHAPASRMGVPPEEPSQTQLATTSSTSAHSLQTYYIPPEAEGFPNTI
UniProt P23198: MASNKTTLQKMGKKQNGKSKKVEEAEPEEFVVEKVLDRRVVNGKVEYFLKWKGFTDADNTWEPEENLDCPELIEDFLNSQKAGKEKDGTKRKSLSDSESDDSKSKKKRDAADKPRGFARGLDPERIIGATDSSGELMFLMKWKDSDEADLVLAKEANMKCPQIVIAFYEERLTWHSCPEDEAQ
UniProt P35285: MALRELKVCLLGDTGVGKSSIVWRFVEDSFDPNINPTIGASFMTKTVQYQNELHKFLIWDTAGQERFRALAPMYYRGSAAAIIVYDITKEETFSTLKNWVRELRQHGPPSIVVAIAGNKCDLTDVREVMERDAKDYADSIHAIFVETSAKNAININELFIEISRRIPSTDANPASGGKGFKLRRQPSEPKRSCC
UniProt P20491: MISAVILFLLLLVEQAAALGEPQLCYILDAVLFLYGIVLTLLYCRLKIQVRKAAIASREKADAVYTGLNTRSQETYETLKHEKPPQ
UniProt P29341, whole entry: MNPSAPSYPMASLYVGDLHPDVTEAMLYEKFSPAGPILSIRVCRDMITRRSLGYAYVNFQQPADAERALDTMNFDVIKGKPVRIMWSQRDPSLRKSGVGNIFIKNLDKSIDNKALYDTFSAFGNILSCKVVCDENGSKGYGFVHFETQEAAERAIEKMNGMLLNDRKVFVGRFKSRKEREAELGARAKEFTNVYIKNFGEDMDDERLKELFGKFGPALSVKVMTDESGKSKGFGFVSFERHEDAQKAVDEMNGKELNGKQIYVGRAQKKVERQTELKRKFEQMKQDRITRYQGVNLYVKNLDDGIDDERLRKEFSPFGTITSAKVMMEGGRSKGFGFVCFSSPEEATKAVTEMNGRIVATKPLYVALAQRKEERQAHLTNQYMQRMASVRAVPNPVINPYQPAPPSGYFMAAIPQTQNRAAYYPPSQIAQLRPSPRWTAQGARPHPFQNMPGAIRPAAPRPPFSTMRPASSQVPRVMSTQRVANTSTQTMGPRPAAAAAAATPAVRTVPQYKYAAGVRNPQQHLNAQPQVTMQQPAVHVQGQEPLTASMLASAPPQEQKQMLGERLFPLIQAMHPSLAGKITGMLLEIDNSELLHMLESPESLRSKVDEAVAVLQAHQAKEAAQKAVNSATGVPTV

Some of the results follow. Most entries show no effect beyond the scatter of the controls.

Compound in the assay: CN[C@@H]1C[C@H]2O[C@@](C)([C@@H]1OC)n1c3ccccc3c3c4c(c5c6ccccc6n2c5c31)C(=O)NC4 [staurosporine]
Description: log2 fold change of tryptic peptide abundance, ligand vs vehicle (limited proteolysis) (log2 ratio); higher = more trypsin-susceptible (destabilized). The note with it: ligand concentration: 20 uM; sample: mouse liver crude lysate; replicate design: treated separately.
For “UniProt P28659 (peptide sequence: MFVGQVPR, peptide start residue: 18)”, the log2 fold change turned out to be 0.171.

As to “UniProt P25446 (peptide sequence: IDEIMHDSIQDTAEQK, peptide start residue: 251)”, the log2 fold change was -0.247.

Consider “UniProt P19324 (peptide sequence: SYTVGVTMMHR, peptide start residue: 228)”, for which the log2 fold change came to 0.206.

Consider “UniProt P23881 (peptide sequence: NAMTQEAIR, peptide start residue: 284)”, for which the log2 fold change amounted to 0.13.

In the case of “UniProt P28662 (peptide sequence: VYNIHSR, peptide start residue: 56)”, the log2 fold change is -0.14.

Consider “UniProt P21107 (peptide sequence: LVIIEGDLERTEER, peptide start residue: 170)”, for which the log2 fold change amounted to 0.18.

As to “UniProt P27808 (peptide sequence: KGVSHGQFFDQHLK, peptide start residue: 319)”, the log2 fold change is -0.949.

As for “UniProt P32233 (peptide sequence: TTVEDFCMK, peptide start residue: 316)”, the log2 fold change was -0.679.

Take “UniProt P31001 (peptide sequence: NISEAEEWYK, peptide start residue: 287)”: the log2 fold change was -0.0851.

With “UniProt P25976 (peptide sequence: QWSQLSDK, peptide start residue: 233)”, the log2 fold change was -0.227.

As to “UniProt P16951 (peptide sequence: LKAALTQQHPPVTNGDTVK, peptide start residue: 260)”, the log2 fold change is -0.231.

As to “UniProt P27786 (peptide sequence: YGPIYSLR, peptide start residue: 60)”, the log2 fold change is -0.237.

As to “UniProt P19973 (peptide sequence: KSQPTLPISTIDER, peptide start residue: 208)”, the log2 fold change was -0.319.

With “UniProt P18337 (peptide sequence: EIEYLENTLPK, peptide start residue: 72)”, the log2 fold change is 0.214.

With “UniProt P19536 (peptide sequence: EIMIAAQK, peptide start residue: 49)”, the log2 fold change is -0.147.

For “UniProt P20443 (peptide sequence: VYVTLTCAFR, peptide start residue: 53)”, the log2 fold change was found to be 0.168.

“UniProt P17717 (peptide sequence: IILDELVQR, peptide start residue: 41)”: the log2 fold change is -0.422.

Turning to “UniProt P22272 (peptide sequence: DAQSPYDNSNR, peptide start residue: 444)”, the log2 fold change is -0.159.

For “UniProt P17047 (peptide sequence: HHTGYEQF, peptide start residue: 408)”, the log2 fold change worked out at 0.0732.

With “UniProt P26645 (peptide sequence: LSGFSFKK, peptide start residue: 159)”, the log2 fold change was determined as 0.298.

Regarding “UniProt P26618 (peptide sequence: KKSMLDSEVK, peptide start residue: 770)”, the log2 fold change was -0.0964.

Consider “UniProt P26262 (peptide sequence: ATIPLVPNEECQKK, peptide start residue: 538)”, for which the log2 fold change was 0.206.

As to “UniProt P32507 (peptide sequence: YHELPTLEER, peptide start residue: 445)”, the log2 fold change was 0.0561.

Consider “UniProt P18468 (peptide sequence: FDSDVGEFR, peptide start residue: 35)”, for which the log2 fold change was -0.235.

For “UniProt P33175 (peptide sequence: TNLSVHEDKNR, peptide start residue: 151)”, the log2 fold change came to 0.0846.

Take “UniProt P23204 (peptide sequence: MVANGVEDKEAEVR, peptide start residue: 258)”: the log2 fold change came to 0.165.

Take “UniProt P28700 (peptide sequence: VLTELVSK, peptide start residue: 354)”: the log2 fold change came out at 0.291.

In the case of “UniProt P23242 (peptide sequence: KVAAGHELQPLAIVDQRPSSR, peptide start residue: 346)”, the log2 fold change stood at 0.0285.

Consider “UniProt P30658 (peptide sequence: MSQSQVQAASR, peptide start residue: 263)”, for which the log2 fold change is -0.667.

As for “UniProt P19785 (peptide sequence: AANLWPSPLVIK, peptide start residue: 292)”, the log2 fold change was 0.215.

With “UniProt P23198 (peptide sequence: KVEEAEPEEFVVEK, peptide start residue: 21)”, the log2 fold change is 0.193.

As for “UniProt P35292 (peptide sequence: EVTFQEGKEFAESK, peptide start residue: 141)”, the log2 fold change is -0.298.

In the case of “UniProt P35285 (peptide sequence: TVQYQNELHK, peptide start residue: 46)”, the log2 fold change was -0.271.

As to “UniProt P20491 (peptide sequence: SQETYETLK, peptide start residue: 72)”, the log2 fold change is -0.059.

For “UniProt P27577 (peptide sequence: AAVDLKPTLTIIK, peptide start residue: 3)”, the log2 fold change was -0.269.

Consider “UniProt P18826 (peptide sequence: VPIGFYQK, peptide start residue: 1085)”, for which the log2 fold change turned out to be 0.203.

For “UniProt P29341 (peptide sequence: EFTNVYIK, peptide start residue: 189)”, the log2 fold change was found to be 0.205.

As to “UniProt P30416 (peptide sequence: LASHLNLAMCHLK, peptide start residue: 319)”, the log2 fold change came out at 0.115.

Turning to “UniProt P23188 (peptide sequence: ESRPQQQPPALRPEVEMEPR, peptide start residue: 684)”, the log2 fold change is -0.127.
